# According to patent US8273787B2, “Activated cytotoxic compounds for attachment to targeting molecules for the treatment of mammalian disease conditions” (Onconova Therapeutics, Inc, priority 2006, dated 2012):
# At least one compound was matched to its structure with a doubt left.
# Tested on: Human breast carcinoma (BT20) cells
# Experiment: nude mouse xenograft model, BT20
# Type: in vivo
# Conditions: 10 mg/kg by IP injections, Q2Dx3, DMSO vehicle
# Method: Human breast carcinoma (BT20) cells were injected subcutaneously into female athymic nude mice (ncr/ncr). […] The average tumor volume and body weights were determined on the indicated days.
# BT20 cells were injected in female nude mice. The mice (N=5-8) were treated with ON 01500 (Panel A.) at 10 mg/kg by IP injections or Vehicle alone (DMSO) every other day Q2Dx3.
compound,measurement,value
"COc1cc(OC)c(/C=C/S(=O)(=O)Cc2ccc(OC)c(N)c2)c(OC)c1 [ON 01500, (E)-2,4,6-trimethoxystyryl-4-methoxy-3-aminobenzylsulfone]",BT20 tumor growth,significantly inhibited
